In paper PMC7819943, “Rice protein-binding microarrays: a tool to detect cis-acting elements near promoter regions in rice” one finds binding signal data, which are given here for 42 sequences.

Protein sequences, listed by entry. Tags and fused reporters are not part of them.
UniProt Q0JBA9, entry or part of it: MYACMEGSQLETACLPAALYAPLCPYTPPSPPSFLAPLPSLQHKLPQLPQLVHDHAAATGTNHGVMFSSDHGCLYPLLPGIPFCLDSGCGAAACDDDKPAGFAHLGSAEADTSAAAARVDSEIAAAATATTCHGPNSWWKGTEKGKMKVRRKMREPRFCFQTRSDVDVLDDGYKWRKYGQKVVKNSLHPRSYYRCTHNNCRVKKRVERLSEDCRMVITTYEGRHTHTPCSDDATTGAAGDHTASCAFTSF

The list shows a part of the results.

This assay addresses OsWRKY34 (Oryza sativa, UniProt Q0JBA9 1-250). Briefly: protein-binding microarray (RPBM); PBS, 2% BSA, 51.3 ng/ul salmon testes DNA, 50 uM zinc acetate, 200 nM TF, 25 C, 1 h; high values mean tight binding. The following applies: protein: recombinant; tags: N-terminal polyhistidine and DsRed monomer fusion (pET32a); label: CyDye5-dUTP incorporated in the synthesized complementary strand; 3' TTTTT single-stranded linker to array surface; dsDNA, one strand shown. The method, boiled down: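 Binding signal is defined as the fluorescence intensity of each feature in arbitrary units, read on an Axon 4000B scanner. Transcription factors with N-terminal polyhistidine and DsRed fusions came from E. coli BL21-CodonPlus and were purified on Ni–NTA. They were incubated at 200 nM for 1 h at 25 °C on a custom Agilent array that had been made double-stranded with Cy5-dUTP, with 50 µM zinc acetate present, and the array was washed.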
For “TGCGGTTCCGTGTCGTCCAAATTAATGTGTCACTGTTAATCGGAGTCACCTAGTGCAG”, the binding signal is 8880 fluorescence intensity (a.u.).
With “CTTGGCCGATAACCCGTCTCACCGCCAAATCGCCAATCTCCGGAGTCACCTAGTGCAG”, the binding signal was 8340 fluorescence intensity (a.u.).
For “ACCACTTGGCTTTCTTTCTTTTATCCGGTTAGTTCCGGCGCGGAGTCACCTAGTGCAG”, the binding signal is 8090 fluorescence intensity (a.u.).
Consider “TAAAATCTGCACTAGTGTTTTTCCAAGCTTTTTTTTTTTTCGGAGTCACCTAGTGCAG”, for which the binding signal was 10800 fluorescence intensity (a.u.).
In the case of “GTGTTGGTTATGTACCTCATACTGTGCATGATTTGTCCCTCGGAGTCACCTAGTGCAG” it was 8710 fluorescence intensity (a.u.); in that of “CTCGGTGATGCATCGGATATGTTCCATGTTATATTTAAGTCGGAGTCACCTAGTGCAG”, 8110 fluorescence intensity (a.u.).
As for “GTAGACCCACATGTCATTGAGATAGGGGTGGCAAATAGTTCGGAGTCACCTAGTGCAG”, the binding signal was 8170 fluorescence intensity (a.u.).
Under “ATCCAAAGCCTATGTCCATTCAGCCCATTACGGTCTGGCCCGGAGTCACCTAGTGCAG” stands 10300 fluorescence intensity (a.u.); under “CCCAGTATTTTTCACTTACCTTTCACCCTTTTAACTTTTGCGGAGTCACCTAGTGCAG”, 8350 fluorescence intensity (a.u.); under “GTACAATTGCTTGTGATAATAATTAATTTGACCTATTAAACGGAGTCACCTAGTGCAG”, 8210 fluorescence intensity (a.u.).
Under “TCATGTGGCCTGTTGGGTTAGTATTGTCAACCGGATCTGACGGAGTCACCTAGTGCAG” stands 13200 fluorescence intensity (a.u.); under “GTTCTATCCTTTCCATCTCCTTTGCAGCAGTCAAGAATATCGGAGTCACCTAGTGCAG”, 11400 fluorescence intensity (a.u.); under “GAATCCCAACCATCCATCTGCATCCGCATTGCCCTAATCCCGGAGTCACCTAGTGCAG”, 12000 fluorescence intensity (a.u.).
With “GGAGTGTGGCGGAGCGGGAGTTCGCGGGCGGACGGCGGGGCGGAGTCACCTAGTGCAG”, the binding signal is 11700 fluorescence intensity (a.u.).
With “TGAGTTTAGGGGTATATATTTCTGGTTTTATGGTTAAGGGCGGAGTCACCTAGTGCAG”, the binding signal is 12500 fluorescence intensity (a.u.).
Turning to “TGTGGCATTCGCTAAAGTTTCAAGCGTTATTTTGTTTTGGCGGAGTCACCTAGTGCAG”, the binding signal was 8320 fluorescence intensity (a.u.).
As for “CCCTTTCTTACCGCATGTACGTGCCCGGCTGCTTCCTATACGGAGTCACCTAGTGCAG”, the binding signal was 14600 fluorescence intensity (a.u.).
For “GCGCGATCATCTCCCACTCCCACCGTTGTTCCTCCTCAACCGGAGTCACCTAGTGCAG”, the binding signal is 9320 fluorescence intensity (a.u.).
For the sequence “CTTTCTTTTTCTACACCCTCATGCAACAAACTTTCTATTACGGAGTCACCTAGTGCAG”, the binding signal was 8260 fluorescence intensity (a.u.).
For the sequence “CATACTCTGATATACCTGAAGGACTTTCTACCGTCATTATCGGAGTCACCTAGTGCAG”, the binding signal is 9750 fluorescence intensity (a.u.).
For “GCCATTTTTCTTGGCGCCAAGCCCGGCTTTCCCGCGGCGCCGGAGTCACCTAGTGCAG”, the binding signal is 10300 fluorescence intensity (a.u.).
As to “GGATTCTCTGTTTTTTTTTGGGTACTTCTGATTGATTCAACGGAGTCACCTAGTGCAG”, the binding signal was 9170 fluorescence intensity (a.u.).
Under “ATCTACTCCACCTGGCATTCCTACATTTTTTTTCAATTGACGGAGTCACCTAGTGCAG” stands 8680 fluorescence intensity (a.u.); under “TTTGCAGGGGCTGGGCATGATCACTGTCTCGTCGGTTCTTCGGAGTCACCTAGTGCAG”, 12100 fluorescence intensity (a.u.).
In the case of “GCACATTCTCACTGATATTATTGAATTTCCTACTCAGTACCGGAGTCACCTAGTGCAG” it was 12600 fluorescence intensity (a.u.); in that of “GATTGGGCGATTTCATCTTCTTCTTGGCCTTGAGGCGGTACGGAGTCACCTAGTGCAG”, 10000 fluorescence intensity (a.u.); in that of “GATTTGTGCGGTTTTTATTATTCTTCTCGTTCAATTTCTCCGGAGTCACCTAGTGCAG”, 9170 fluorescence intensity (a.u.).
For “TATGTTTTCTGTCAACTGCTCGTCTTTTTCGTGGCAAGATCGGAGTCACCTAGTGCAG”, the binding signal was 11700 fluorescence intensity (a.u.).
Under “ATTTCTAAATATTTGACGTCGTTGACTTTTTTAAACATGTCGGAGTCACCTAGTGCAG” stands 26800 fluorescence intensity (a.u.).
“CTCCGACCGCATGCTCTCCTCCCTGAACCTCGCACGTATACGGAGTCACCTAGTGCAG”: the binding signal was 10100 fluorescence intensity (a.u.).
Consider “CAGTAGAGGTGTGGTGGTGATATTGCAGGCGGCGACCATGCGGAGTCACCTAGTGCAG”, for which the binding signal was 8840 fluorescence intensity (a.u.).
Turning to “CAGCCCGTTAAAATTAGGCCTTCCTCTATCTTCCTTTTTCCGGAGTCACCTAGTGCAG”, the binding signal is 8530 fluorescence intensity (a.u.).
In the case of “CTTCGGTTTCGTAATTTTTCTCTCTTGTTCGTTCTCCATGCGGAGTCACCTAGTGCAG” it was 8400 fluorescence intensity (a.u.).
As to “CCATCTTCGCCGCCCGCGCCTCTCGCGCCGAACTAGCCTCCGGAGTCACCTAGTGCAG”, the binding signal is 13100 fluorescence intensity (a.u.).
As for “CAATTCTCCATGCTCATCCCACCAAAATTCTCATATCTCTCGGAGTCACCTAGTGCAG”, the binding signal was 10600 fluorescence intensity (a.u.).
Under “TGTGCTCTTCTTGCCGCCATCTTTTGACCTCGTTGCAATGCGGAGTCACCTAGTGCAG” stands 8040 fluorescence intensity (a.u.); under “GTGGTTTGAGGCGTCCGATTTTTTTTCGACCGCTCGAGCGCGGAGTCACCTAGTGCAG”, 10700 fluorescence intensity (a.u.); under “AATTCACCATGTTGGAACTTGCACAGGTTTGTACACAATTCGGAGTCACCTAGTGCAG”, 8390 fluorescence intensity (a.u.).
For “AGAAAATACACGGTCAACTAACGGTCAACTGACGGGAGGGCGGAGTCACCTAGTGCAG”, the binding signal is 8790 fluorescence intensity (a.u.).
As for “TCGCCTACACACGCCGTCGTCGTCTTCTTTCCTGGCAATGCGGAGTCACCTAGTGCAG”, the binding signal was 8870 fluorescence intensity (a.u.).
On to “ACACCCCAACCCGGCAACGGCAACCCGACCCAACCTGCGCCGGAGTCACCTAGTGCAG”, for which the binding signal was 9230 fluorescence intensity (a.u.).
“CGTGGAGAGGGGAGGGGAGGGAGAGGGAGACCGGGCGCATCGGAGTCACCTAGTGCAG”: the binding signal was 8560 fluorescence intensity (a.u.).
